From publication PMC3625234, “The L-Cysteine Desulfurase NFS1 Is Localized in the Cytosol where it Provides the Sulfur for Molybdenum Cofactor Biosynthesis in Humans” (PLoS ONE, 2013)
Results are given in words; binding and its absence hold for the method and conditions named. For some assays here: In cells and extracts the contact can be indirect. Some binding calls cover weakened binding; strength is not graded here. For some assays here: Sequences can lack the tags named with a protein.

Amino acid sequences for entries named in this document (tags omitted). A change or cut given only in a name is not applied to a line headed by its entry. Residues count along the entry.
UniProt Q9Y697, residues 56-457: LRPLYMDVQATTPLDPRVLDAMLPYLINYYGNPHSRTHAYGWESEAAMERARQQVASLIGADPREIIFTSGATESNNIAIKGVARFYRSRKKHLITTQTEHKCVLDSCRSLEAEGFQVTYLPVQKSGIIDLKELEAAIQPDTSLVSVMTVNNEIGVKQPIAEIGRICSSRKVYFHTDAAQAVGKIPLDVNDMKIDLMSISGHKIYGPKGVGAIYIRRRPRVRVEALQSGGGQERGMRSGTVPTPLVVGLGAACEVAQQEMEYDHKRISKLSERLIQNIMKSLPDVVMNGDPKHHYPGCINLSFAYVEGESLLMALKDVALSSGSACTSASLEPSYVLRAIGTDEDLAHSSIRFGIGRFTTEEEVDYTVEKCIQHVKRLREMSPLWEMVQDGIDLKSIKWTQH
UniProt Q9HD34: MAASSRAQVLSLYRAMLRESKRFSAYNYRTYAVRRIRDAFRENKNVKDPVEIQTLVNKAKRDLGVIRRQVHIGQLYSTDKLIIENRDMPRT
UniProt P02769, residues 25-607: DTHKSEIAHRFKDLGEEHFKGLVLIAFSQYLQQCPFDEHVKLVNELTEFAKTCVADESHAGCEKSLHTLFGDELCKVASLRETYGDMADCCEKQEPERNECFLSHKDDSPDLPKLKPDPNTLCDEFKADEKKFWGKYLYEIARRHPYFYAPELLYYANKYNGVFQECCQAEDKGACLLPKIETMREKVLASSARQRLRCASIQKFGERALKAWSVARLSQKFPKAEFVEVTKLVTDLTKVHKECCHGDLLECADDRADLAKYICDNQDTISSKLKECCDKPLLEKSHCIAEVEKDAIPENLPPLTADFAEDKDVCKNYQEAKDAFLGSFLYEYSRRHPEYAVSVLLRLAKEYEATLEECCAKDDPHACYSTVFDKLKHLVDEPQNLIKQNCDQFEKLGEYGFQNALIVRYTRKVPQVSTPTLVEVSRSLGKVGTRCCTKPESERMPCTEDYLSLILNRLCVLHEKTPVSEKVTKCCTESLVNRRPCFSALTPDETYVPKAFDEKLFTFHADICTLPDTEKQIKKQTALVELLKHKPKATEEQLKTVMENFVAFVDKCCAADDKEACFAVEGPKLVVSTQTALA

Columns and labels:
[1] = molecular target: NFS1Δ1-55 (purified) (human) (UniProt Q9Y697); test: co-purification of co-expressed proteins; His6-NFS1Δ1-55 expressed in the presence of ISD11 in E. coli BL21(DE3) and purified as a complex
[2] = molecular target: ISD11-EGFP^1–157 fusion (human) (UniProt Q9HD34); test: split reporter; split-EGFP complementation (EGFP 1-157 and EGFP 158-238, both fused C-terminally) in transiently cotransfected HeLa cells, fixed 12 h after transfection, confocal microscopy
[3] = molecular target: T1, MOCS3-EGFP^1–157 fusion (human) (UniProt O95396); test: as above
T1 sequence: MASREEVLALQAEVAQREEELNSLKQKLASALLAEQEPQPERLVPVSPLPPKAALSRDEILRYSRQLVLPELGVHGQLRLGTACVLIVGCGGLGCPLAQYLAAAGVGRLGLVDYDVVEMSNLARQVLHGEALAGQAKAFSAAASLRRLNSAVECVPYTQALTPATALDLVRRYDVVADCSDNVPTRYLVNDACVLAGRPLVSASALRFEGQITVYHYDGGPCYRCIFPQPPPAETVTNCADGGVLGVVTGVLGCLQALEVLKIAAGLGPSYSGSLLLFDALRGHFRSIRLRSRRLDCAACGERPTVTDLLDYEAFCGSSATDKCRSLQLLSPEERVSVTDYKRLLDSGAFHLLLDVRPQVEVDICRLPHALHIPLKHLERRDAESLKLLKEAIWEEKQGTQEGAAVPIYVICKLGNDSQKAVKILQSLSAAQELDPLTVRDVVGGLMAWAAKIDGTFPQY

[4] = molecular target: T2, MOCS3 purified after expression in Sf9 cells (human) (UniProt O95396); test: SPR; Biacore T200, CM5 chip, target immobilized by amine coupling (400–600 RU), 25°C, 30 µL/min, 20 mM phosphate, 150 mM NaCl, 0.005% Tween 20, pH 7.4; analytes 0.31–10 µM; global fit, 1:1 binding, mean of 3 measurements; both purified
T2 sequence: T1 sequence

ISD11 (expressed from pACYCDuet1) (from UniProt Q9HD34 1-91)
binding [1]: binds

NFS1Δ1-55-EGFP^158–238 fusion (from UniProt Q9Y697 56-457) (domain or fragment)
binding [2]: binds | binding [3]: binds

bovine serum albumin (from UniProt P02769 25-607)
binding [4]: no binding

B1: MOCS3-EGFP^1–157 fusion (enzyme, UniProt O95396 1-460)
chain: T1 sequence
binding [3]: binds
